Test results: US20260071182A1 (GAIA BIOMEDICINE, published 2026)
Blank lines part the entries; values can stand above or below the binder they belong to.

Amino acid sequences for entries named in this document (tags omitted). Residues count along the entry.
UniProt O76036, 22-255: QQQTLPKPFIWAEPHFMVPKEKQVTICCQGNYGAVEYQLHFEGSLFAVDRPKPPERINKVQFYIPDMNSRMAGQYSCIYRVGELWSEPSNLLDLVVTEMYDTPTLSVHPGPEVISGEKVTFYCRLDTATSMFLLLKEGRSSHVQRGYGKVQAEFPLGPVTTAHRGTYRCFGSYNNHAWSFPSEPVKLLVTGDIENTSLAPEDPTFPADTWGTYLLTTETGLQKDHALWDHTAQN

What was measured:
[1] = target: T1, Biotinylated Human NKp46/NCR/CD335 Protein, Fc, Avitag (NC1-H82F9) (human, UniProt O76036 22-255, biotinylated (Avitag)); test: BLI (Octet RED96), target on sensor, monobody in five 2-fold dilutions
T1 construct: Bought from ACROBiosystems, catalog NC1-H82F9; not shown: Fc and Avitag of the purchased protein
Procedure: (§1) The binding abilities and specificities were examined by using an Octet® RED96 (ForteBio) with bio-layer interferometry. Measurement was performed with the following program: Dip for 50 seconds, Load for x seconds (until a signal of 1.0 nm (NKp46, 2B4) or 0.8 nm (Nkp30) was reached), Baseline for 60 seconds, Association for 600 seconds, and Dissociation for 600 seconds. At that time, the monobody concentrations were equally set to 40 nM. The acquired data were analyzed with ForteBio Data Analysis 10.0. Only samples for which binding ability and specificity were found were subjected to measurement of dissociation constants under different conditions. The measurement conditions are shown in a table given below. Dip, Baseline, Association, and Dissociation were performed for the same times as in examining binding ability and specificity. The monobodies were serially diluted from the highest concentration by a factor of 2 to prepare five concentrations for use in measurement.
(§2) The binding abilities and specificities of all the clones expressed and purified in Example 3 were examined, and the values of dissociation constants were measured. FIGS. 5 to 7 show the measurement results. In the top graphs in each of FIGS. 5 to 7, upper lines show results of measurement of the binding abilities of the monobodies with binding of a target to the tip of the sensor, and lower lines show results of examination on whether a monobody was bound only to the sensor without binding of a target to the sensor. Mb in the graphs is an abbreviation for monobody concentration. For any of the clones, the monobody was bound to the sensor when a target was fixed on the sensor, and no binding was found when a target was not fixed on the sensor. The bottom graphs in each of FIGS. 5 to 7 show results of measurement of dissociation constants for five concentrations.

[2] = target: T2, Biotinylated Human 2B4/CD244/SLAMF4 Protein, Fc, Avitag (2B4-H82F0) (human, UniProt Q9BZW8-2 22-221, biotinylated (Avitag)); test: as above
T2 construct: Bought from ACROBiosystems, catalog 2B4-H82F0; not shown: Fc and Avitag of the purchased protein
T2 sequence (looked up): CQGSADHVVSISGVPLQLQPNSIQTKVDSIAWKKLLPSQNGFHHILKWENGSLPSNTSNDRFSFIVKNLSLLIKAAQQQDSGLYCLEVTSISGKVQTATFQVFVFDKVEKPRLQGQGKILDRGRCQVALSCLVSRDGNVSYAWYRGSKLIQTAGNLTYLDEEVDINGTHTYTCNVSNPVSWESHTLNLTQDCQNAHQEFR
Procedure: as §1, §2

Kd [1]: 1.4 nM
koff [1]: 0.0005 s⁻¹
kon [1]: 350000 M⁻¹ s⁻¹
B1: Mb-NKp46-BC-1 (designed binder)
chain: LEVVEASPTSIQISWDAPIWGRYGTVRYYRITYGETGGNSPVQEFTVPGSKSTATISGLKPGVDYTITVYAVTTVRGQTYYWWMLPISINYRTEIDKPSQ
notes: Monobody on human fibronectin type III domain scaffold, BC-FG library; also called NKp46 BC-FG No. 1; not shown: N-terminal residues of the expression construct (X7n7; the library has MPNR), linker, Sortase A recognition site and His tag

Kd [2]: 2 nM
koff [2]: 0.00025 s⁻¹
kon [2]: 120000 M⁻¹ s⁻¹
B2: Mb-2B4-BC-1 (designed binder)
chain: LEVVEASPTSIQISWDAGPIVSYSWWYHWVRYYRITYGETGGNSPVQEFTVPGSKSTATISGLKPGVDYTITVYAVTVGYVNEKYDAWQSYVQPISINYRTEIDKPSQ
notes: Monobody on human fibronectin type III domain scaffold, BC-FG library; also called 2B4 BC-FG No. 1; not shown: Sortase A recognition site, His tag and any linker (X8n8) at the C terminus; MPNR in the library
